Data as given in patent US20240287184A1.
Where a chain is given by its changes, count along the chain named. No constants are given. Whether binding was seen depends on the method and setting. Some entries that bind do so weakly or less than the wild type. Values belong to the binder of their own block, whether it stands above or below them.

Protein sequences, listed by entry. Tags and fused reporters are not part of them. Residues count along the entry.
UniProt Q15116, residues 25-167: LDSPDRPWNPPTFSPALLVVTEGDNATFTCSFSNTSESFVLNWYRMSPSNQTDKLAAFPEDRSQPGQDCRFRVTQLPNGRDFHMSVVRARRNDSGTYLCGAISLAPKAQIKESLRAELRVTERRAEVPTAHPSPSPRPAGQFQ

What was measured:
[1] = target: PD-1-his (ACRO) recombinant protein (UniProt Q15116); experiment: BLI (ForteBio Octet), PD-1-his loaded on sensor
[2] = target: PD-1-his (ACRO) recombinant protein (UniProt Q15116); experiment: BLI (ForteBio Octet), compared with PD-1-112-C2 and Opdivo

- binding [1]: binds
- binding [2]: binds
B1: anti-PD-1 humanized antibody c22 (antibody, V domains shown)
VH: QVQLVQSGAEVKKPGASVKVSCKASGYTFTTYYMYWVRQAPGQGLEWMGGINPSNGGTNFNEKFKSRVTMTVDKSTSTAYMELSSLRSEDTAVYYCTRRDSNYDGGFDYWGQGTTVTVSS
VL: DIQLTQSPSSLSASVGDRATITCRASKSVSTSGYSYMHWYQQKPGKAPKLLIYLAYHLESGVPSRFSGSGSGTDFTLTISSVQPEDFATYYCQHSWELPITFGQGTKLEIKR

- binding [1]: binds
- binding [2]: binds
B2: anti-PD-1 humanized antibody c53 (antibody, V domains shown)
VH: B1 VH with F60Y, N61A, E62Q, K65Q, S66G, V68A, K74T
VL: B1 VL with L4M, A19V, V82L

- binding [1]: binds
- binding [2]: binds
B3: anti-PD-1 humanized antibody c43 (antibody, V domains shown)
VH: B1 VH with M48I, F60Y, N61A, S66G, M70L, K74T
VL: B1 VL with L4M, A19V, V82L
